Laboratory results reported in paper PMC6026745.
Results are given in words; binding and its absence hold for the method and conditions named. Some binding calls cover weakened binding; strength is not graded here.

Target: BTB/POZ domain of human 90K (LGALS3BP, galectin 3 binding protein), residues 124 to 250 (human) (UniProt Q08380)
Assay: crystal structure; human BTB, tag cleaved and deglycosylated, 6 mg/ml in 10 mM Tris pH 8.0, 100 mM NaCl; hanging drop at 293K, 9% PEG 8000, 0.2 M zinc acetate, 0.1 M imidazole pH 6.8; 1 homodimer per asymmetric unit; both purified

binding: binds
B1: BTB/POZ domain of human 90K (LGALS3BP, galectin 3 binding protein), residues 124 to 250 (domain or fragment, UniProt Q08380 124-250)
chain: TNETRSTHTLDLSRELSEALGQIFDSQRGCDLSISVNVQGEDALGFCGHTVILTANLEAQALWKEPGSNVTMSVDAECVPMVRDLLRYFYSRRIDITLSSVKCFHKLASAYGARQLQGYCASLFAIL
